Experimental data as given in PubChem BioAssay AID493014 (National Center for Advancing Translational Sciences (NCATS), 2011).
Where “and” joins values, the source holds several entries; their conditions need not be identical. Equal entries are not always repeated. Some of the results follow. Further columns of the screen follow, without active or inactive calls. The list favours compounds with an active or inconclusive main result. The note in brackets gives the kind of curve behind each potency; many fits are weak.

Assay: qHTS Assay to Find Inhibitors of Chronic Active B-Cell Receptor Signaling
Conditions: ABC-DLBCL IkBa-CBG/CBR reporter, luminescence ratio (green luciferase fused to IkBa over red control in TMD8 lymphoma cells), 4 h
Method in brief: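 Compounds up to 46 uM were incubated four hours with TMD8 cells whose green CBG68 luciferase is fused to IkappaBalpha; red CBR luminescence normalised the signal, and concentration-effect curves were fitted to fusion, red and ratio data.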

[1] = measured here: CBR red luminescence, cell number
[2] = measured here: IkBa-CBG green luminescence

Compound | AC50 [1] | AC50 [2]
Cc1ccc(-c2nn(-c3ccccc3)cc2/C=C/C(=O)O)o1 | 22.4 µM [falling, partial curve, poor fit] | –
O=C(CSc1nc2ccccc2c(=O)n1-c1ccc(F)cc1)Nc1cc(S(=O)(=O)N2CCOCC2)ccc1Cl | 5.8 µM [falling, full curve] | –
Cc1cccc(NC(=S)N2CCN(Cc3ccc4c(c3)OCO4)CC2)c1C | 9.2 µM [rising, partial curve, poor fit] | –
COc1cc(C(=O)OCC(=O)NCc2ccc(F)cc2)cc(NC(=O)c2cccs2)c1OC | 16.4 µM [falling, partial curve, poor fit] | –
Cc1ccc(/C=N/NC(=O)c2cc(C)oc2C)cc1 | 4.47 µM [falling, partial curve] | –
COC(=O)c1ccc(C2C(C(=O)c3cc4ccccc4o3)=C(O)C(=O)N2c2cc(C)on2)cc1 (stereo unspecified) | 11.2 µM [falling, partial curve, poor fit] | –
O=C(NC(=S)Nc1cccc2cnccc12)c1ccccc1 | 2.82 µM [falling, full curve, poor fit] | –
COc1ccccc1C1C(C(=O)c2ccc(C)o2)=C(O)C(=O)N1c1cc(C)on1 (stereo unspecified) | 15.8 µM [falling, single point] | –
CS(=O)(=O)N(Cc1ccc(Cl)cc1)c1ccc(C(=O)N2CCN(c3ccccc3)CC2)cc1 | 2.06 µM [falling, full curve, poor fit] | –
CCc1nnc(NC(=O)CSc2ncc(-c3ccccc3)[nH]2)s1 | 0.651 µM [rising, partial curve, poor fit] | –
C/C(CCC1CC(C)(C)OC1=O)=N\NC(N)=S (stereo unspecified) | 31.6 µM [rising, single point] | 22.4 µM [falling, single point]
CCOC(=O)N1CC=C2C(C#N)=C(N)C(C#N)(C#N)[C@H](c3ccsc3)[C@H]2C1 | 28.2 µM [falling, single point] | –
O=C(c1ccccn1)N(Cc1ccco1)C1(C(=O)NC2CCCCC2)CCCCC1 | 20.6 µM [rising, single point] | –
CC(=O)n1cc(N(C(=O)CCl)c2ccc(Cl)cc2)c2ccccc21 | 5.01 µM [falling, partial curve] | 3.55 µM [rising, full curve]
O=C(Nc1ccc2c(c1)Cc1ccccc1-2)c1ccco1 | 15.8 µM [falling, single point] | –
Cc1ccc(NC(=O)Cn2nc(C(=O)O)c3ccccc3c2=O)cc1S(=O)(=O)N1CCOCC1 | 14.6 µM [rising, partial curve, poor fit] | 20.6 µM [falling, partial curve, poor fit]
CCn1c(NCc2ccccn2)nc2c1c(=O)n(C)c(=O)n2C | – | 18.4 µM [rising, partial curve, poor fit]
CCOc1cc2[nH]c(=S)n(Cc3ccc(C(=O)NCCOC)cc3)c(=O)c2cc1OCC | 0.164 µM [falling, full curve, poor fit] | –
COc1ccc(NC(=O)CSc2ncnc3c2cnn3Cc2ccccc2)cc1OC | 1.16 µM [falling, full curve] | –
CN1CCc2c(sc(/N=C/c3c[nH]c4ccccc34)c2C(N)=O)C1 | 7.08 µM [falling, partial curve] | –
O=C(CN1CCN(S(=O)(=O)c2ccc(Cl)cc2)CC1)NC1CCCC1 | 0.0891 µM [falling, full curve, poor fit] | –

Compound | AC50 [1] | AC50 [2]
O=C(COC(=O)c1cc(S(=O)(=O)N2CCOCC2)ccc1F)c1ccc[nH]1 | 7.31 µM [rising, partial curve, poor fit] | –
CCCCCCCCCC(=O)N[C@@H]1c2cc(OC)c(OC)cc2C[C@H]1O | – | 18.4 µM [falling, single point]
COC(=O)C1=C(C)N(Cc2ccccc2)C(=NCc2ccc(OC)cc2)N[C@H]1c1ccccc1 | 25.1 µM [falling, single point] and 14.6 µM [falling, single point] | –
O=C(CSCc1cnn(-c2ccccc2)c1-n1cccc1)N1CCN(Cc2ccccc2)CC1 | 29.1 µM [falling, single point] | –
Nc1nc(NCc2ccccc2)n(-c2ccccc2)n1 | 2.51 µM [rising, partial curve, poor fit] | –
Cn1cccc1C(=O)NC(=O)COC(=O)CNC(=O)CNC(=O)c1ccc(Cl)cc1Cl | 11.2 µM [rising, partial curve, poor fit] | –
O=C(NNC(=O)C1CC1)Nc1ccc(Cl)cc1 | 2.82 µM [rising, full curve] | –
COc1ccc(C(=O)N/N=C(\C)c2ccc3c(c2)C2C=CCC2C(c2ccccc2)N3)cc1 (stereo unspecified) | 6.51 µM [falling, full curve, poor fit] | –
Cc1cccc2sc(NC(=O)CSc3nnnn3C)nc12 | 8.91 µM [falling, partial curve, poor fit] | –
Cc1ccc(Nc2c(-c3ccc(C)o3)nc3cnccn23)cc1 | 1.64 µM [rising, partial curve, poor fit] | –
O=[N+]([O-])c1cccc(OCCN2CCC(Cc3ccccc3)CC2)c1 | 35.5 µM [falling, partial curve, poor fit] | –
Cc1nc(NC(=O)COc2ccccc2)sc1C(=O)Nc1ccccc1 | 9.2 µM [falling, partial curve, poor fit] | –
CCCOP(=O)(c1ccc(N(C)C)cc1)C(O)c1ccc(Cl)cc1 (stereo unspecified) | 12.6 µM [rising, single point] | –
CN(CC(=O)Nc1ccccc1Sc1ccccc1)C1CCCCC1 | 25.1 µM [rising, single point] | –
Cc1ccc(N2C(=O)c3ccccc3C2C(=O)c2cc(C)ccc2O)cc1 (stereo unspecified) | 29.1 µM [falling, single point] | –
Cc1ccccc1CSc1nnc(-c2ccccc2)c(=O)[nH]1 | 2.51 µM [falling, full curve, poor fit] | –
O=C(CONS(=O)(=O)c1ccc(Cl)cc1)NCCNc1ncc(C(F)(F)F)cc1Cl | 12.6 µM [falling, single point] | –
CC(=O)N1CCN(Cc2nc3cc(NC(=O)c4ccccc4C)ccc3n2C)CC1 | 10 µM [falling, partial curve, poor fit] | –
O=C(N/N=C/c1ccc(OC(=O)c2cccs2)cc1)c1ccccn1 | 8.91 µM [falling, partial curve] | –
O=C(CNc1cc(S(=O)(=O)N2CCOCC2)ccc1NCC1CCCO1)Nc1ccc(F)c(F)c1 (stereo unspecified) | 17.8 µM [falling, single point] | –
O=C(NCc1cccnc1)c1ccc(-c2ccc(Cl)cc2)o1 | 2.24 µM [rising, partial curve] | –

Reprinted from the listing, 2 compounds:
Compound | AC50 [1] | AC50 [2]
O=C(NNC(=O)C1CC1)Nc1ccc(Cl)cc1 | 2.82 µM [rising, full curve] | –
COc1ccc(C(=O)N/N=C(\C)c2ccc3c(c2)C2C=CCC2C(c2ccccc2)N3)cc1 (stereo unspecified) | 6.51 µM [falling, full curve, poor fit] | –

The list goes on.

Compound | AC50 [1] | AC50 [2]
c1ccc(Oc2cccc(OCCCn3cncn3)c2)cc1 | 10.3 µM [falling, partial curve] | –
CCn1cc(C(=O)NCC2CCCO2)c(=O)c2cc(S(=O)(=O)N3CCCCC3)ccc21 (stereo unspecified) | 3.55 µM [rising, single point] | –
CCOc1ccc2c(CC)cc(=O)oc2c1OCC | 20.6 µM [rising, partial curve] | 20.6 µM [falling, single point]
O=C(/C=C/c1ccc(F)cc1)NCCNC(=O)/C=C/c1ccc(F)cc1 | 35.5 µM [rising, single point] | –
COc1ccccc1N(CC(=O)Nc1cccnc1)S(C)(=O)=O | 6.31 µM [falling, single point] | –
Cc1nnc(SCC(=O)NC2CCCCCC2)n1N | 29.1 µM [rising, single point] | –
COc1cccc(N2CCN(CC(=O)NC3=Nc4ccccc4N=C(C)C3c3ccccc3)CC2)c1 (stereo unspecified) | 25.1 µM [falling, single point] | –
O=S(=O)(NCc1cc(-c2ccccc2)no1)c1ccc(Cl)cc1 | 8.91 µM [rising, partial curve] | –
Cn1c(=O)c2c(nc(NCc3cccnc3)n2Cc2ccc(Cl)cc2)n(C)c1=O | 1.16 µM [falling, full curve] | –
Cc1ccccc1N=Cc1cc2c(cc1O)OC(N)=C(C#N)C2c1ccccc1 (stereo unspecified) | 20.6 µM [falling, partial curve] | 23.1 µM [rising, partial curve, poor fit]
Nc1ccnn1Cc1ccc(Br)s1 | 5.17 µM [rising, single point] | –
COc1ccccc1-c1noc(CSc2nc(C)cc(=O)[nH]2)n1 | 35.5 µM [falling, single point] | –
Cc1ccc(C2=NNC3(CCOC(C)(C)C3)S2)cc1 (stereo unspecified) | 35.5 µM [falling, single point] | –
CCCCOc1cccc(C(=O)NNC(=S)NC2CCCCC2)c1 | 16.4 µM [falling, partial curve, poor fit] | –
COc1ccccc1-n1c(=S)[nH]c2c(sc(=S)n2-c2ccccc2C)c1=O | 14.1 µM [falling, partial curve, poor fit] | –
CC(=O)Nc1ccc(S(=O)(=O)Nc2cccc3cccnc23)cc1 | 2 µM [rising, partial curve, poor fit] | –
CCCc1nc2scc(-c3ccccc3)c2c(=O)n1N | 3.66 µM [rising, full curve, poor fit] | –
COC(=O)c1ccc(NC(=S)Nc2ccc3ccccc3c2)cc1 | 10.3 µM [falling, partial curve] | –
COc1cccc(C(=O)NCCn2ccc3ccccc32)c1 | 6.51 µM [falling, partial curve] | –
